# Assay results

Source: PubChem BioAssay AID504749 (NCATS, 2011).

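Malaria parasite (P. falciparum) lines kept in red blood cells; parasite DNA is measured by SYBR Green fluorescence after lysis, 72 h after compound addition.
Each compound was titrated across a series from about 0.000037 to 29 µM.
The number is the fitted AC50, the concentration giving a half-maximal change in signal; a lower value means higher potency, whether the curve shows a decrease or an increase.
Calls follow the curve class and fit quality: every row here is inconclusive, covering signal-raising curves and weak, poorly fitted, partial or highest-dose-only inhibition curves.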

Values are in µM.
Every entry below has the call inconclusive.
Only part of the assay is shown, chiefly results filed as inconclusive.
Potencies fitted to partial, single-point or poorly fitting curves are rough.

{"compound": "CCCOC(C(=O)OC1CCN(C)CC1)(c1ccccc1)c1ccccc1", "condition": "JCK", "Potency (µM)": "10", "curve as filed": "inhibitor, single point"}
{"compound": "CCCOC(C(=O)OC1CCN(C)CC1)(c1ccccc1)c1ccccc1", "condition": "CP252", "Potency (µM)": "7.943", "curve as filed": "inhibitor, partial curve"}
{"compound": "CCCOC(C(=O)OC1CCN(C)CC1)(c1ccccc1)c1ccccc1", "condition": "CP250", "Potency (µM)": "17.78", "curve as filed": "inhibitor, single point"}
{"compound": "CCCOC(C(=O)OC1CCN(C)CC1)(c1ccccc1)c1ccccc1", "condition": "AA1029", "Potency (µM)": "11.22", "curve as filed": "inhibitor, partial curve"}
{"compound": "CCCOC(C(=O)OC1CCN(C)CC1)(c1ccccc1)c1ccccc1", "condition": "C2A", "Potency (µM)": "14.13", "curve as filed": "inhibitor, single point"}
{"compound": "CCCOC(C(=O)OC1CCN(C)CC1)(c1ccccc1)c1ccccc1", "condition": "CP247", "Potency (µM)": "7.08", "curve as filed": "inhibitor, partial curve"}
{"compound": "CCCOC(C(=O)OC1CCN(C)CC1)(c1ccccc1)c1ccccc1", "condition": "CP215", "Potency (µM)": "15.1", "curve as filed": "inhibitor, single point"}
{"compound": "CC(COc1ccccc1)N(CCCl)Cc1ccccc1", "stereo": "stereo unspecified", "condition": "CP217", "Potency (µM)": "11.22", "curve as filed": "inhibitor, single point"}
{"compound": "CC(COc1ccccc1)N(CCCl)Cc1ccccc1", "stereo": "stereo unspecified", "condition": "SC27B", "Potency (µM)": "11.22", "curve as filed": "inhibitor, single point"}
{"compound": "CC(COc1ccccc1)N(CCCl)Cc1ccccc1", "stereo": "stereo unspecified", "condition": "ATS189", "Potency (µM)": "11.22", "curve as filed": "inhibitor, single point"}
{"compound": "CC(COc1ccccc1)N(CCCl)Cc1ccccc1", "stereo": "stereo unspecified", "condition": "CP268", "Potency (µM)": "4.776", "curve as filed": "inhibitor, partial curve, poor fit"}
{"compound": "CC(COc1ccccc1)N(CCCl)Cc1ccccc1", "stereo": "stereo unspecified", "condition": "ECU", "Potency (µM)": "11.22", "curve as filed": "inhibitor, single point"}
{"compound": "CC(COc1ccccc1)N(CCCl)Cc1ccccc1", "stereo": "stereo unspecified", "condition": "CP335", "Potency (µM)": "4.256", "curve as filed": "inhibitor, partial curve"}
{"compound": "CC(COc1ccccc1)N(CCCl)Cc1ccccc1", "stereo": "stereo unspecified", "condition": "CP329", "Potency (µM)": "15.1", "curve as filed": "inhibitor, partial curve, poor fit"}
{"compound": "CC(COc1ccccc1)N(CCCl)Cc1ccccc1", "stereo": "stereo unspecified", "condition": "CP291", "Potency (µM)": "19.01", "curve as filed": "inhibitor, partial curve, poor fit"}
{"compound": "CC(COc1ccccc1)N(CCCl)Cc1ccccc1", "stereo": "stereo unspecified", "condition": "TAB113", "Potency (µM)": "11.22", "curve as filed": "inhibitor, single point"}
{"compound": "CC(COc1ccccc1)N(CCCl)Cc1ccccc1", "stereo": "stereo unspecified", "condition": "PC26", "Potency (µM)": "15.1", "curve as filed": "inhibitor, single point"}
{"compound": "CC(COc1ccccc1)N(CCCl)Cc1ccccc1", "stereo": "stereo unspecified", "condition": "AS120", "Potency (µM)": "12.59", "curve as filed": "inhibitor, single point"}
{"compound": "CC(COc1ccccc1)N(CCCl)Cc1ccccc1", "stereo": "stereo unspecified", "condition": "N140", "Potency (µM)": "10", "curve as filed": "inhibitor, single point"}
{"compound": "CC(COc1ccccc1)N(CCCl)Cc1ccccc1", "stereo": "stereo unspecified", "condition": "TAB109", "Potency (µM)": "5.012", "curve as filed": "inhibitor, partial curve"}
{"compound": "CC(COc1ccccc1)N(CCCl)Cc1ccccc1", "stereo": "stereo unspecified", "condition": "DIV14", "Potency (µM)": "4.776", "curve as filed": "inhibitor, partial curve"}

Repeated from the top, 2 entries:

{"compound": "CCCOC(C(=O)OC1CCN(C)CC1)(c1ccccc1)c1ccccc1", "condition": "JCK", "Potency (µM)": "10", "curve as filed": "inhibitor, single point"}
{"compound": "CCCOC(C(=O)OC1CCN(C)CC1)(c1ccccc1)c1ccccc1", "condition": "CP252", "Potency (µM)": "7.943", "curve as filed": "inhibitor, partial curve"}